Holding throughout (assay): pull-down; GST-LASP1 forms (WT, pre-phosphorylated, ΔSH3, ΔLIM) as bait with lysates of HEK-293 cells transfected with AKT1 constructs; AKT1 detected by Western blot; only the target purified
For orientation: In western blotting, separated proteins are transferred to a membrane and probed.

The chains behind the UniProt entries cited, without tags or fusion partners. Where a name states a change or a piece, a line headed by the entry shows the natural chain unless it says otherwise.
UniProt P31749: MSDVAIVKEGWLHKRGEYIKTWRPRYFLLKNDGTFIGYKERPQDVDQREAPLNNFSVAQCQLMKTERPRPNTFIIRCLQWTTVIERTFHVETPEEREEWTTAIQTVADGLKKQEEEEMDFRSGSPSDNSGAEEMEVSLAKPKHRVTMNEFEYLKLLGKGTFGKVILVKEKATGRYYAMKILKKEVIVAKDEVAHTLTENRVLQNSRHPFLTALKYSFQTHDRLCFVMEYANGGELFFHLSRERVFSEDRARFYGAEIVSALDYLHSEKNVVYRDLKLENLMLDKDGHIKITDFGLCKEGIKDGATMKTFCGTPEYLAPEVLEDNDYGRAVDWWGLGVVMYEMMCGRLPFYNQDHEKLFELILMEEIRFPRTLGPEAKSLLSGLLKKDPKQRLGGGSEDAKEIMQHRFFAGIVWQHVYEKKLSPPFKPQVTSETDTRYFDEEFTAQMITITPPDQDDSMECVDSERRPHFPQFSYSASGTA

In experiment [1] the target is T1, GST-LASP1-ΔSH3 (aa 1-190) (human) (UniProt Q14847).
T1 sequence: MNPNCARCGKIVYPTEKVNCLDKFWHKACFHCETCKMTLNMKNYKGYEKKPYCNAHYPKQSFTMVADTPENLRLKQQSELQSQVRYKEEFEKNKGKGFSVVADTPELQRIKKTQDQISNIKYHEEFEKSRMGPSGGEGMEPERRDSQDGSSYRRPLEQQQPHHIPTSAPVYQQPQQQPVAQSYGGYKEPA

Experiment [2] addresses T2, GST-LASP1-ΔLIM (aa 64-261) (human) (UniProt Q14847).
T2 sequence: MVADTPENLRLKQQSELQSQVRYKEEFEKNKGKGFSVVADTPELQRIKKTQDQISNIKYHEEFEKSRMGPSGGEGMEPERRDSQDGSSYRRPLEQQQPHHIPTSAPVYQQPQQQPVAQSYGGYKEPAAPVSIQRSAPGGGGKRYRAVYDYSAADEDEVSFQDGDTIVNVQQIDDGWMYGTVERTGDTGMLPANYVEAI

In a further experiment the target is T3, GST-LASP1-WT (human) (UniProt Q14847).
T3 sequence: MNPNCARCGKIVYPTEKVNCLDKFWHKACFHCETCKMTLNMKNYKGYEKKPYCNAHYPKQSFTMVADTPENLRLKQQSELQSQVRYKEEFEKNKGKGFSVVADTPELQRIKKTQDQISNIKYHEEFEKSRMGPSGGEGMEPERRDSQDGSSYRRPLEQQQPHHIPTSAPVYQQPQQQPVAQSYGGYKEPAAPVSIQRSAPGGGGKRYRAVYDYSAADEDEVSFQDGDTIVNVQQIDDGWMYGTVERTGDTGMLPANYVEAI

No constants are given. Whether binding was seen depends on the method and setting. Binding seen in cells or lysates may run through a third protein. Some results given as binding are weak or reduced against the parent protein; the word gives no strength. Tags and fused reporters may be left off the sequences shown.

The values below come from publication PMC7072741.

As to “HA-AKT1 full length (AKT1-WT, aa 1-480) (from UniProt P31749 1-480)”, the binding entry in experiment [1] and in experiment [2] was “binds” throughout. As for “HA-AKT1-K420S (from UniProt P31749 1-480)”, in the experiment with GST-LASP1-WT (human), the binding entry is reported as “binds”. The same measure, in the same setting: then “HA-AKT1-K426S (from UniProt P31749 1-480)”, with “binds”; and “HA-AKT1-R465S (from UniProt P31749 1-480)”, with “binds”.
